# Percent effect of library compounds

A: 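Phenotypic screen: M. tuberculosis growth, cholesterol and DPPC medium, 4 days; the read-out is not stated. Compounds at 50 µM. Direction is inferred from retests: higher values go with more growth inhibition. Size under these conditions: about 69,000 compounds, about 370 of them at 50% or above in at least one test.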
B: 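Phenotypic screen: M. tuberculosis growth, glucose 7H9 medium, 3 days; the read-out is not stated. Concentration: 50 µM. Higher reads as more growth inhibition (inferred: compounds with an IC50 in retests scored well above the rest). Of about 69,000 compounds tested this way, about 760 (1.1%) reached 50% or more in at least one test.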

Values are the deposited “Percent Effect”, in %.
The controls that fix the scale are not given in the record; negative values are as filed.
Compounds were drawn at random from those tested, without regard to their results.
Two or more numbers in one place are separate tests of the same structure; such repeats can differ widely.

- COCCN1CCN(C(=O)C[C@@H]2C[C@@H](C(C)C)[C@H](CC#N)C=C2C)CC1 : A: 9.153%; B: 8.723% and 2.255%
- CC(c1cccc(S(N)(=O)=O)c1)N(C)CCOC(C)(C)C (stereo not given) : A: 5.034%; B: -19.74%
- O=C(O)C(F)(F)F.[H][C@@]12CCCO[C@]1([H])[C@H](n1cccn1)CN2Cc1cccs1 : A: -17.46%; B: -27.29% and -0.2448%
- NC(=O)c1ccc(N2CCN(Cc3c(Cl)cncc3Cl)CC2)nc1 : A: -12.03%; B: 2.79% and -17.24%
- c1cnn(CC2CN(Cc3nc(C4CC4)no3)CCO2)c1 (stereo not given) : A: -27.58%; B: -8.074%
- CCCn1nccc1NC(=O)c1ccc(Cl)c(N2CCNC2=O)c1 : A: -0.5889%; B: -5.365%
- CN(Cc1cccs1)C(=O)CS(=O)(=O)Cc1ccc(Cl)c(Cl)c1 : A: -7.277%; B: 2.489%
- COc1ccc(C2=CCN(C(=O)CN(CC(N)=O)C(C)C)CC2)cc1 : A: -21.72%; B: -14.61%
- Cc1ccc(C(=O)N2CC(C(N)=O)O[C@H](C)C2)c(F)c1 (stereo not given in full) : A: -14.03%; B: -13.98%
- COCCCNC(=O)Cn1nnc(-c2cc3ccccc3o2)n1 : A: -6.971%; B: -17.92% and -3.637%
- O=C(O)C(F)(F)F.[H][C@@]12CCN(c3ccc(C)nn3)[C@@]1([H])CCN2C(=O)Cc1ccsc1 : A: 6.126%; B: -9.412%
- COc1cccc(CNC(=O)NC2(c3nc(C)no3)CCCCC2)c1 : A: -15.71%; B: -2.517% and 2.558%
- CCn1cc(CN2CCCn3nc(CCC(=O)NCCO)cc3C2)cn1 : A: -12.73%; B: -8.342%
- CN1[C@H](CO)C[C@H](CNCc2ccc(Cl)c(F)c2)[C@@H]1c1ccccc1F : A: 17.41%; B: 17.16%
- CC(C)(C)NC(=O)c1cnc2n1CCCC2 : A: -12.31%; B: 5.665% and 22.05%
- COCCN(Cc1ccc(C)cc1)Cc1c[nH]cn1 : A: 18.71%; B: 10.37%
- CCOC(=O)c1ccc(N2CCN(Cc3c(C)nn(C)c3Cl)CC2)nc1 : A: 29.18%; B: 16.89% and 23.31%
- CCn1c(C)cc(C(=O)N2CCC(NC(=O)c3ccc(C)o3)CC2)c1C : A: -23.47%; B: -14.25%
- COc1c(C)cnc(CN2CCCC2Cn2nc(C)nc2C)c1C (stereo not given) : A: 10.99%; B: -5.066%
- CN1CCc2[nH]cnc2C12CCN(Cc1ccc3nsnc3c1)CC2 : A: 8.329%; B: -0.7398% and 9.561%
- COc1ncccc1NC(=O)N1CCOCC1C (stereo not given) : A: 6.321%; B: 13%
- CN(Cc1ccc2c(c1)OCO2)C(=O)C1CC(c2cccc(F)c2)=NO1 (stereo not given) : A: -6.867%; B: -7.317%
- CC(C)c1nccn1-c1nccnc1C1CCCN1Cc1ccccc1 (stereo not given) : A: -9.056%; B: 16.62%
- CCn1nc2c(cc1=O)CN(CC(=O)Nc1cc(C(C)C)no1)CC2 : A: -9.831%; B: 17.98%
- O=C(O)C(F)(F)F.O=C(O)C(F)(F)F.O=C1N(c2cncnc2)CCC12CCCN(Cc1ccccn1)C2 (stereo not given) : A: -26.64%; B: -31.43%
- O=C(CCc1nccs1)N1CCC(C(=O)O)(c2ccccc2)CC1 : A: 1.331%; B: 6.032% and -0.5704%
- COCCCSc1ccc(NCc2scnc2C)cc1 : A: 13.77%; B: 59.98% and 40.83%
- Cc1cccc(C(C)C)c1NC(=O)CN(C)C(C)c1nccs1 (stereo not given) : A: -2.168%; B: 24.81%
- CCN(Cc1noc(CC(C)C)n1)Cc1ccccc1C : A: -0.4781%; B: 17.07%

Once more, the final 3:

- COCCCSc1ccc(NCc2scnc2C)cc1 | A: 13.77%; B: 59.98% and 40.83%
- Cc1cccc(C(C)C)c1NC(=O)CN(C)C(C)c1nccs1 (stereo not given) | A: -2.168%; B: 24.81%
- CCN(Cc1noc(CC(C)C)n1)Cc1ccccc1C | A: -0.4781%; B: 17.07%

From ChEMBL document CHEMBL3988442, “University of Dundee, Small-Polar-MMV Screening Library” (2021).